From patent US11377425B1, “Small molecule modulators of IL-17” (LEO Pharma A/S, priority 2018, dated 2022)
Read-outs that look alike come from different tables or passages of the source. The match of structure and compound is tentative.

By UniProt entry, the sequences of proteins in these tests, tags left out. Residues count along the entry.
UniProt Q16552, 24-155 limits assumed: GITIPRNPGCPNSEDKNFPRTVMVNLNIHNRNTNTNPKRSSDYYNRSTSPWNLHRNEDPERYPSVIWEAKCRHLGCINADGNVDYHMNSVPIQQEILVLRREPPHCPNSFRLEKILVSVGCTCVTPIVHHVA

Molecular target: human IL-17AA (Homo sapiens, UniProt Q16552)
Test: IL-8 release assay in human epithelial keratinocytes adult (HEKa)
Conditions: read-out: Rel EC50 IL-8 release assay, HEKa cells, 3 ng/mL HEK-human IL-17AA + 10 ng/mL human TNFalpha
Experimental: Example 138: IL-8 Release Assay in Human Epithelial Keratinocytes Adult (HEKa)
Keratinocytes were seeded at 3500 cells/well in 384-well ViewPlates (Perkin Elmer) in Epilife medium (Thermo Fisher) containing human keratinocyte growth supplement (HKGS) without hydrocortisone and incubated in a humid incubator at 37° C. 5% CO2, overnight. The following day growth medium was removed and 25 μl fresh Epilife medium added. 75 nL test compound in 100% DMSO was added into each well reserved for test compounds, by the use of acoustic pipetting. The remaining wells received an equal volume of DMSO only, as vehicle control, or terfenadine in DMSO, as a positive control for any cytotoxic compounds. Subsequently, another 25 μL Epilife medium was added to each well. […] IL-8 released from the cells was measured by the use of a commercial homogenous time-resolved fluorescence (HTRF) assay (CisBio). […] Time-resolved fluorescence was read at 665 vs 620 nm, with excitation at 320 nm, and IL-8 levels calculated as percent of controls. […] Cytotoxicity was measured in the cell-containing Viewplates following addition of 7 μL PrestoBlue (Thermo Fisher) and incubation for 2.5-3 hours at room temperature, by measuring fluorescence at 615 nm (excitation at 535 nm). Fluorescence was directly proportional to the amount of metabolic activity. Reduction of fluorescence signal indicated cytotoxicity. […]

SMILES	EC50	EC50 (tested form: disodium salt)
Cc1nn(CO)c(C)c1-c1ccc(NC(=O)[C@@H](NC(=O)c2ccnn2C(C)C)C(C2CC2)C2CC2)cc1	< 0.1 µM	–
CCn1nccc1C(=O)N[C@H](C(=O)Nc1ccc(-c2c(C)nn(COP(=O)(O)O)c2C)cc1)C(C1CC1)C1CC1	–	< 0.1 µM
